Publication doi:10.1101/2020.05.13.093252
Results are given in words; binding and its absence hold for the method and conditions named. In cells and extracts the contact can be indirect. Some results given as binding are weak or reduced against the parent protein; the word gives no strength.

Sequences of proteins named here, by UniProt entry; tags and fusion partners are left off. Residues count along the entry.
UniProt P21803, residues 22-821: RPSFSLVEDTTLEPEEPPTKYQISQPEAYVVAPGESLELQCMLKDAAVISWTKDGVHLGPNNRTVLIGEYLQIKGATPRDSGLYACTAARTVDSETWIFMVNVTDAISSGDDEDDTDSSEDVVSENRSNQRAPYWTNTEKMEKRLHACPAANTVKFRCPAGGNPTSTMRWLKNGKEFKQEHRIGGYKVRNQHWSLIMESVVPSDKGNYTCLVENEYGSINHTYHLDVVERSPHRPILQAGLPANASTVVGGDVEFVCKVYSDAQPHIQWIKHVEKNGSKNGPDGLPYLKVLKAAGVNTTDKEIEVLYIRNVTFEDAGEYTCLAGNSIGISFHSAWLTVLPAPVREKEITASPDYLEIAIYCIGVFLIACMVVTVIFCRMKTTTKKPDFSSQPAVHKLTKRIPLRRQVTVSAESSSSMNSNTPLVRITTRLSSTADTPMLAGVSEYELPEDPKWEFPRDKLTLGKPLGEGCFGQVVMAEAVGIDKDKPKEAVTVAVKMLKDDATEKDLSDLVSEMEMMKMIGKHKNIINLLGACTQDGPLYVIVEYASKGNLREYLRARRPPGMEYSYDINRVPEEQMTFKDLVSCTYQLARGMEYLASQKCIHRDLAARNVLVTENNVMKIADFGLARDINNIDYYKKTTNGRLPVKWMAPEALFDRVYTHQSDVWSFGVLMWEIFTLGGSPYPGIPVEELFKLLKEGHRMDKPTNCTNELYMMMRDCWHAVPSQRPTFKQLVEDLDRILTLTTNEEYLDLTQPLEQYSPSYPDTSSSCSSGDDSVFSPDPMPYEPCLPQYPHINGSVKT

Target: FGFR2^WT-Flag3x (mouse FGFR2 isoform c, wild type, triple Flag tag) (mouse) (UniProt P21803)
Experiment: co-IP

binding: binds
B1: FRS2 (protein, UniProt Q8C180 1-508)
chain: MGSCCSCPDKDTVPDNHRNKFKVINVDDDGNELGSGVMELTDTELILYTRKRDSVKWHYLCLRRYGYDSNLFSFESGRRCQTGQGIFAFKCARAEELFNMLQEIMQNNSINVVEEPVVERSSHQTELEVPRTPRTPTTPGLGAQNLPNGYPRYPSFGDASSHPSSRHPSVGSARLPSVGEESTHPLLVAEEQVHTYVNTTGVQEERKNRASVHVPPEARVSNAESNTPKEEPSNPEDRDPQVLLKPEGVRFVLGPTPVQKQLMEKEKLEQLGKDPVSGSGAGNTEWDTGYDSDERRDVPPVNKLVYENINGLSIPSASGVRRGRLTSTSTSDTQNINNSAQRRPALLNYENLPSLPPVWEARKLSRDEDDNLGPKTPSLNGYHNNLDPMHNYVNTENVTVPASAHKIDYSKRRDCTPTVFNFDIRRPSLEHRQLNYIQVDLEGGSDSDNPQTPKTPTTPLPQTPTRRTELYAVIDIERTAAMSNLQKALPRDDGTSRKTRHNSTDLPM
